Experimental data: paper PMC10688318
Results are given in words; binding and its absence hold for the method and conditions named. In cells and extracts the contact can be indirect. A yes stands for co-enrichment or nearness to the bait. Other partners may have been found. A no says only that the protein was not detected with the bait.

Molecular target: HA-nsp3mut/4-V5 (unprocessed nsp3/4 polyprotein with inactive PLpro protease, C1592A) (SARS-CoV-2)
Assay: affinity purification with mass spectrometry

B1: HSD17B12 (enzyme, UniProt Q53GQ0 1-312)
chain: MESALPAAGFLYWVGAGTVAYLALRISYSLFTALRVWGVGNEAGVGPGLGEWAVVTGSTDGIGKSYAEELAKHGMKVVLISRSKDKLDQVSSEIKEKFKVETRTIAVDFASEDIYDKIKTGLAGLEIGILVNNVGMSYEYPEYFLDVPDLDNVIKKMININILSVCKMTQLVLPGMVERSKGAILNISSGSGMLPVPLLTIYSATKTFVDFFSQCLHEEYRSKGVFVQSVLPYFVATKLAKIRKPTLDKPSPETFVKSAIKTVGLQSRTNGYLIHALMGSIISNLPSWIYLKIVMNMNKSTRAHYLKKTKKN
How did the binding turn out when B1 was run?
Its binding is “no binding”.
